Results are given in words; binding and its absence hold for the method and conditions named. In cells and extracts the contact can be indirect. Some results given as binding are weak or reduced against the parent protein; the word gives no strength.

Sequences of proteins named here, by UniProt entry; tags and fusion partners are left off.
UniProt Q04206: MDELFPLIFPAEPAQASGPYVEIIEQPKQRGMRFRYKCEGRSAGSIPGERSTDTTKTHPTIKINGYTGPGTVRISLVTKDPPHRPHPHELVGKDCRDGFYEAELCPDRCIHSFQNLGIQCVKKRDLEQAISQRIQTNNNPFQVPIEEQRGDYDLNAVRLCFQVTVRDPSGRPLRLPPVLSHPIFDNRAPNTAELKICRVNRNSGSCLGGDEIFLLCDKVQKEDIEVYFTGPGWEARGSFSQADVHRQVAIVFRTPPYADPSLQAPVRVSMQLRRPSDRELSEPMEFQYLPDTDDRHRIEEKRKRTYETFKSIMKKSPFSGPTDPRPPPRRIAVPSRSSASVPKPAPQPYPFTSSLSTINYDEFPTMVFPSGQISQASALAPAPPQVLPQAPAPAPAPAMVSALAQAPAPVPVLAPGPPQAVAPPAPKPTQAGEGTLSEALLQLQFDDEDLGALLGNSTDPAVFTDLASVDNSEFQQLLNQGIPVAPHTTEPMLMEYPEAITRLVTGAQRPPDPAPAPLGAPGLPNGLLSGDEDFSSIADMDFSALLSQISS

The results in this text go back to article doi:10.1101/2022.11.02.514846.

Experiment [1] concerns the target p62-GFP wild-type (WT) (UniProt Q13501). The experiment in a line: co-IP.
Experiment [2] concerns the target NF-κB subunit p65 (RelA), endogenous (human (endogenous in HEK293T, A549, U2-OS, THP1)) (UniProt Q04206). The experiment in a line: co-IP.
Experiment [3] shares this target. The experiment in a line: proximity ligation.
Experiment [4] shares this target. The experiment in a line: co-IP. This is another data set of the same source.

“NF-κB subunit p65 (RelA), endogenous (from UniProt Q04206 1-551)”: the binding entry in experiment [1] is on record as “binds”.
For “p62 / sequestosome 1 (SQSTM1), endogenous (from UniProt Q13501 1-440)”, the binding result in experiment [2], in experiment [3] and in experiment [4] was “binds” throughout.
